Test results reported in patent US20090221440A1.
Results are given in words; binding and its absence hold for the method and conditions named. Some entries that bind do so weakly or less than the wild type.

Molecular target: IFP-F[1]-AKT1, P31749
Test: IFP fragment complementation (PCA) in HeLa Tet-on cells
Settings: remark: other sources report otherwise

- binding: binds
B1: PDK1-IFP-F[2], O15530 1-556 (enzyme, UniProt O15530 1-556, looked up, not shown: large carriers)
chain: MARTTSQLYDAVPIQSSVVLCSCPSPSMVRTQTESSTPPGIPGGSRQGPAMDGTAAEPRPGAGSLQHAQPPPQPRKKRPEDFKFGKILGEGSFSTVVLARELATSREYAIKILEKRHIIKENKVPYVTRERDVMSRLDHPFFVKLYFTFQDDEKLYFGLSYAKNGELLKYIRKIGSFDETCTRFYTAEIVSALEYLHGKGIIHRDLKPENILLNEDMHIQITDFGTAKVLSPESKQARANSFVGTAQYVSPELLTEKSACKSSDLWALGCIIYQLVAGLPPFRAGNEYLIFQKIIKLEYDFPEKFFPKARDLVEKLLVLDATKRLGCEEMEGYGPLKAHPFFESVTWENLHQQTPPKLTAYLPAMSEDDEDCYGNYDNLLSQFGCMQVSSSSSSHSLSASDTGLPQRSGSNIEQYIHDLDSNSFELDLQFSEDEKRLLLEKQAGGNPWHQFVENNLILKMGPVDKRKGLFARRRQLLLTEGPHLYYVDPVNKVLKGEIPWSQELRPEAKNFKTFFVHTPNRTYYLMDPSGNAHKWCRKIQEVWRQRYQSHPDAAVQ
